# Measurements taken from the supplement of paper PMC3334620.
# In all, about 33,000 sequences were measured (“E-score (-0.5 to 0.5)”: median about -0.016, highest 2% from about 0.3 on). This is one part of the list.
# Target: T1, Yer184c (UniProt P39961)
# T1 sequence: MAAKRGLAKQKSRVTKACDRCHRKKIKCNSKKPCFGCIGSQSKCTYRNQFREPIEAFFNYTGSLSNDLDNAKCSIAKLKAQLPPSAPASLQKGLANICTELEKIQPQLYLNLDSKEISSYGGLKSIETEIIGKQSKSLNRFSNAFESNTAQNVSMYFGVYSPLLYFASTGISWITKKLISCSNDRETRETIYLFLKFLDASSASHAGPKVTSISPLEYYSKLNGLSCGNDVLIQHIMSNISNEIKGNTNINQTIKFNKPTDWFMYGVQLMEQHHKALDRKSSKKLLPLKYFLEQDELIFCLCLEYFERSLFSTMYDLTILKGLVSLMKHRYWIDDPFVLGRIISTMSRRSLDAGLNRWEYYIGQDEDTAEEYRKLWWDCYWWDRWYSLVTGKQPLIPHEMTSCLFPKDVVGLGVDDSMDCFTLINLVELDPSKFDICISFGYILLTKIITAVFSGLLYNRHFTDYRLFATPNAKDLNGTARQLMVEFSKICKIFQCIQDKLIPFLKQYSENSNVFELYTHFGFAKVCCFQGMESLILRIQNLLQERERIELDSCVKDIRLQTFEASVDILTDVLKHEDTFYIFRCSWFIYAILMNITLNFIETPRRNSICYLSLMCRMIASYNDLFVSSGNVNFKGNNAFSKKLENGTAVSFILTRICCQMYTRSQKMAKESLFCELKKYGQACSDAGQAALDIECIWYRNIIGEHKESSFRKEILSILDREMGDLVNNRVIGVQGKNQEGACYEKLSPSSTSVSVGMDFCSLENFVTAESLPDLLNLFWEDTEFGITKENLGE
# Assay: PBM E-score (8-mer binding enrichment) (E-score (-0.5 to 0.5)); higher = stronger / more preferred TF binding
# Conditions: protein concentration: 100 nM; construct: GST-full length
# In short: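 Universal all-10-mer Agilent arrays, double-stranded by primer extension on fresh or once-stripped slides, were probed with about 100-200 nM GST-tagged yeast transcription factors made by PURExpress. Fluorescent anti-GST detected bound protein, and masliner normalised the scans. E-scores from the Universal PBM Analysis Suite were given to each ungapped eight-base word pooled with its reverse complement.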
row,Sequence,PBM E-score
1,AGCGTAGA,-0.068
2,GCCAATAC,-0.203
3,ATCACATG,-0.0204
4,ACAACGGA,0.314
5,GACCCGCC,-0.00184
6,CTGATCCC,-0.314
7,CTACATAG,0.0225
8,AGATGGCT,-0.162
9,AAGCTCAC,-0.0354
10,CCCCTCGG,-0.0411
11,ACCACGAC,-0.106
12,ATTCATTG,0.0281
13,GCTTGCGA,0.17
14,AAGATTGG,0.0314
15,GGCACGAC,-0.141
16,AAATTCTG,0.116
17,CAACTTCC,0.162
18,ACCTAGTG,0.0183
19,AGAGACTA,0.0621
20,CACAGCTC,-0.182
21,GCGCCATA,0.0461
22,AGTTTGCA,-0.0278
23,AAATGCAG,-0.203
24,TCTTGCCA,-0.206
25,TCAGGGAA,-0.106

row,Sequence,PBM E-score
1,CGTCGTAA,-0.193
2,CACAGATC,-0.0735
3,AATGGGTC,-0.184
4,CCGATCCC,0.0949
5,CTCTTCTC,-0.215
6,CCCAGGCG,-0.0497
7,CATTCACA,-0.066
8,ACTTGCTC,-0.224
9,ACCATAAT,-0.0165
10,CATGTTTA,0.107
11,CACAGTGA,-0.0981
12,AACGGTTC,0.0175
13,CATGTGGG,-0.263
14,AAAGACAA,0.167
15,ACCTGTTC,-0.0202
16,AGCACAAT,-0.0863
17,ACACCATC,-0.238
18,GTAATAAA,0.151
19,CCGGCAAA,0.374
20,GTCAGTTA,-0.0798
21,ACCGACGT,0.129
22,ATCTACTG,0.045
23,GCACGTTA,-0.11
24,TAGAAATA,0.126
25,AGTGAACA,-0.0513

# In a second layout: results already given
row	Sequence	PBM E-score
4	CCGATCCC	0.0949
8	ACTTGCTC	-0.224
9	ACCATAAT	-0.0165
10	CATGTTTA	0.107
11	CACAGTGA	-0.0981
17	ACACCATC	-0.238

# Remaining list, next part

row,Sequence,PBM E-score
1,TGGTCGAA,-0.379
2,GATTTGTA,0.103
3,CGCTTTAG,-0.0333
4,GTTGTTGA,0.116
5,AGAATGCC,-0.00979
6,GGAACTGA,-0.0159
7,ACGGATAG,0.139
8,CAGCGTCG,0.00627
9,ACGGCCGA,0.355
10,ATGTAAGG,0.0231
11,CGCTTCTC,-0.0784
12,GACTAATA,0.172
13,CCAGAGCC,-0.108
14,GATCTATA,0.203
15,CTGGCCAC,-0.254
16,ACCTGTCC,-0.0715
17,CAAACCCG,0.0999
18,AGTTAGCC,0.0516
19,AGGGATTC,-0.114
20,CAGCATCG,-0.203
21,CGCTGGCA,-0.0581
22,CCATATGC,-0.0909
23,CCTATTAG,-0.0293
24,CCCCATAA,-0.173
25,GAAATGAC,0.136

row,Sequence,PBM E-score
1,AAGCCCTG,-0.209
2,AATTTTGC,0.131
3,AATATGCG,-0.0471
4,GCAGGACC,-0.246
5,GTTTCCGA,0.286
6,CCACTATA,0.0573
7,CCCATTCG,-0.064
8,GCCGGAGC,0.238
9,CTAAACGA,-0.037
10,CTTCTCGA,-0.103
11,AAGTGTGT,-0.0081
12,GGAAAGGA,0.132
13,GACCTAAC,0.11
14,AACGCCGG,0.317
15,ACGCGATC,-0.0152
16,ATGCCCAA,-0.0948
17,GAGACACC,-0.245
18,AGTCTGAT,-0.0584
19,CGAGGACA,-0.148
20,GCCGATGA,0.21
21,GGCTTCAC,-0.0697
22,ATCTGGTG,-0.125
23,CATATAGA,0.165
24,ATGTTGTA,0.116
25,AGCTGCTG,-0.0574

row,Sequence,PBM E-score
1,CCGTCAGA,-0.183
2,CCGCCGGC,0.442
3,CTTTCCCC,0.0391
4,ACTGAAAC,0.152
5,ACACAAAA,0.208
6,ACAGTAGT,-0.0892
7,CGTCTATA,-0.104
8,CACGACCC,-0.109
9,GCGTAGAA,0.0511
10,ACTGTGTG,-0.101
11,AACCTAGT,-0.109
12,ATTTTTAC,0.0537
13,CCGTCGAC,-0.046
14,GCTGATAC,-0.0555
15,CCCCAGGA,-0.372
16,AATGACCG,0.14
17,GTGGTAGA,-0.235
18,AATGCGCG,0.2
19,ACACGCCT,-0.212
20,CTCGCGCA,-0.0306
21,ATCTGCTA,-0.0945
22,ACGTTGAC,-0.108
23,AGAAGCTA,0.1
24,CAAGGCGG,-0.164
25,ATACCCAA,0.11

row,Sequence,PBM E-score
1,AATGGCAC,-0.154
2,GCAGGTAA,0.0939
3,GTCCCCAA,-0.157
4,ACGAAAGC,0.0461
5,ATGAACCG,0.0237
6,ACCTTAAG,0.0419
7,CCCCGAAA,0.128
8,AATCGTCG,-0.084
9,TAATCACA,-0.0395
10,ACCGGTGG,-0.0724
11,CCACAGAC,-0.0884
12,GGACTCAC,-0.201
13,CGACCCCC,-0.357
14,GAGGTCAC,-0.0933
15,GCACTTCC,-0.208
16,ATTCCCAC,-0.171
17,GCAATCAC,0.0563
18,AATGAGGC,-0.0821
19,TAGGCAAA,-0.0609
20,AAAGGCGG,-0.00978
21,AATAGGTC,-0.0248
22,ACCGATTA,0.209
23,CCTCCGAA,0.0955
24,GAACAGGC,-0.0621
25,AAACCACT,-0.00821

row,Sequence,PBM E-score
1,GCCCGGAC,0.192
2,AATAGCGA,0.107
3,CTGATTGA,-0.0646
4,ACTCGCTA,-0.049
5,AATACCTG,-0.189
6,TATCAAGA,0.0046
7,AACGCTTG,-0.121
8,ACCTGATC,-0.227
9,TGTATAAA,0.0524
10,AAACCCTC,-0.135
11,ACAGAACC,-0.0975
12,TACTATAA,0.153
13,CAGCAACC,-0.0589
14,ACCCATAT,0.0462
15,GTTTACGA,-0.116
16,AACGATGA,0.0704
17,CCGCTCCG,0.228
18,CAGGCGCG,-0.0832
19,ACTCGGAG,0.184
20,CGAGAGCG,-0.168
21,ACATTTAA,0.187
22,ATGTACGC,-0.248
